{"source": "patent US20200000713A1", "about": "“INJECTABLE POLYMER MICRO-DEPOTS FOR CONTROLLED LOCAL DRUG DELIVERY” (Massachusetts Institute of Technology, priority 2017, published 2020)", "key": {"[1]": {"test": "In vitro release of API from silk micro-depots over time", "type": "physicochemical", "conditions": "methanol annealing vs control matrix not annealed; FIG. 10A"}, "[2]": {"test": "Recovery of encapsulated API after degradation of silk micro-depots", "type": "physicochemical", "conditions": "methanol-annealed silk matrix vs non-annealed control; FIG. 10B"}}, "note": "At least one compound was matched to its structure with a doubt left."}
{"smiles": "CC[C@H](C)[C@H]1O[C@]2(CC[C@@H]1C)C[C@@H]1C[C@@H](C/C=C(\\C)[C@@H](O[C@H]3C[C@H](OC)[C@@H](O[C@H]4C[C@H](OC)[C@@H](O)[C@H](C)O4)[C@H](C)O3)[C@@H](C)/C=C/C=C3\\CO[C@@H]4[C@H](O)C(C)=C[C@@H](C(=O)O1)[C@]34O)O2", "note": "[IVM, ivermectin]", "values": [{"measurement": "recovery of IVM from silk matrix as a function of time", "setting": "[1]", "value": "effective for slow release"}, {"measurement": "total IVM recovery", "setting": "[2]", "value": "equivalent to the recovery of IVM from the control"}]}
